No constants are given. Whether binding was seen depends on the method and setting. Some binding calls cover weakened binding; strength is not graded here.
Key:
[1] = target: T1, wild type 312-340 peptide of SLC34A2 (Example 6; printed as SEQ ID NO: 8) (human); assay: dot blot
T1 sequence (peptide): SPSLCWTDGIQNWTM

[2] = target: T2, clone N1: N-terminally truncated form of the sodium-dependent phosphate transport protein 2b (human) (UniProt O95436); assay: immunoscreening of an OVCAR-3 cDNA phage expression library
T2 sequence (looked up): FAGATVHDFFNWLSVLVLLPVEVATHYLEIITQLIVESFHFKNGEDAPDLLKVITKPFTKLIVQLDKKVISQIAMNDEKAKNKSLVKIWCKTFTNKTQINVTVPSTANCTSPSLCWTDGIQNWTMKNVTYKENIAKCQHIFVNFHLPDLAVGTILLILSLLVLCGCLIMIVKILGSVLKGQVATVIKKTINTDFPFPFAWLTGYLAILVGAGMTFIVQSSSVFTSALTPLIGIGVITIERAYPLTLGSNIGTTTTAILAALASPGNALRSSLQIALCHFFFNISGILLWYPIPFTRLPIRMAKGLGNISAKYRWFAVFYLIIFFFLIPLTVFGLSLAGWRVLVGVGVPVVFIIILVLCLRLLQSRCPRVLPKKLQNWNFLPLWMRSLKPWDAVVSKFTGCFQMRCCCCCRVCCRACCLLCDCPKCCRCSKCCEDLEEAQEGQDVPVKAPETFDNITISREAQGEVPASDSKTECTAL

binding [1]: binds | binding [2]: binds
B1: Murine mAb MX35 (IgG1) (antibody, V domains shown)
VH: QVQLKQSGAELVKPGASVKMSCKASGYTFTGYNIHWVKQTPGQGLEWIGAIYPGNGDTSYKQKFRGKASLTADTSSSTVYMQLSSLTSEDSAVYYCARGETARATFAYWGQGTLVTVSA
VL: DIQMTQTTSSLPASLGDRVTISCSASQDIGNFLNWYQQKPDGTVKVLIYYTSSLYSGVPSRFSGSGSGTDYSLTISNLEPEDIATYYCQQYSKLPLTFGAGTKLELKR
notes: also called MX35 MAb; monoclonal antibody MX35

Reference: US20140193417A1 (LUDWIG INSTITUTE FOR CANCER RESEARCH, published 2014)
